From publication PMC12040169 (PLOS Biology, 2025)
Some of the results follow.

Tested on: T1, CTL2-GFP (C. trachomatis L2/434/Bu, GFP-expressing)
T1 construct: L2/434/Bu, GFP-expressing
Design: species or system HeLa; Intracellular C. trachomatis growth in HeLa cells, bulk GFP fluorescence relative to DMSO
Details: bulk GFP, single well; 28.5 h, 10 µM; inhibitor

Compound	% of control remaining [%]
Cc1ncc(CN(Cc2ccccn2)Cc2ccccc2Cl)n1C [CBK282128]	151.114
O=c1ccc2c(-c3ccccc3)ccnc2[nH]1 [CBK073723]	98.1302
Cc1nc(COc2ccc(F)cc2)sc1C(=O)O [CBK305074]	140.438
Cc1cc(C)c(S(=O)(=O)Nc2nnc(C(C)C)s2)c(C)c1 [CBK045516]	121.27
Cc1cc(N(C)CCc2ccccc2)nc2cc(Cl)ccc12 [CBK262221]	99.1346
COc1ccc(Nc2nc(-c3cccnc3)cnc2N)cc1 [CBK063952]	102.388
O=C1NCCCC12CCN(Cc1cccc(F)c1F)CC2 [CBK284877]	125.466
O=C(CN1CCC(O)(Cc2ccccc2)CC1)N1CCCCCC1 [CBK283500]	130.825
COc1ccc(C(=O)N2CCN3C(=O)CCC32C)s1 (stereo not shown) [CBK282058]	114.399
CCCC(=O)c1ccc(S(=O)(=O)N2CCN(Cc3csc(-c4ccccc4)n3)CC2)cc1 [CBK063161]	86.4909
CC(=O)NCCSc1nc2ccccc2nc1NC(C)C [CBK105618]	107.494
C/C(=N\NC(=O)c1ccc(CN2CCOCC2)cc1)c1ccc2c(c1)OCCO2 [CBK262755]	102.071
O=C1COc2ccccc2C/C=C/C[C@H]2CNCC[C@H]2N1 [CBK292033]	151.86
Cn1cc(-c2nc(C3CCCCCN3C(=O)c3cccnc3)no2)cn1 (stereo not shown) [CBK305387]	106.26
CC(C)Nc1cc(Sc2ccc(Br)cc2)ncn1 [CBK089502]	74.4683
O=C1CC(N2CCN(Cc3ccc4c(c3)OCO4)CC2)C(=O)N1CCc1ccccc1 (stereo not shown) [CBK074541]	102.892
Clc1cncc(OCCc2c[nH]c3ccccc23)n1 [CBK176027]	119.544
Cc1ccc2[nH]c(Cc3ccc(NC(=O)c4cc(=O)n(C)c5ccccc45)cc3)nc2c1 [CBK285815]	123.424
Cn1cc(C(=O)N2CCC3(C/C=C/C[C@H]4COCC[C@H]4NC(=O)CNC3=O)CC2)cn1 [CBK292069]	142.438
COc1cc(CNC(=O)c2cccc(-c3ccc(OC4CCNCC4)cc3)n2)cc(OC)c1OC [CBK126550T]	107.988

Compound	% of control remaining [%]
CCOC(=O)C(NC(=O)N(C1=NCC(C)S1)C1CCCCC1)(OC)C(F)(F)F (stereo not shown) [CBK021431]	123.112
CC(NS(=O)(=O)c1ccc(Cl)cc1)C(=O)Nc1ccccc1Sc1ccccc1 (stereo not shown) [CBK266984]	154.4
Cc1ccc(N(CC(=O)Nc2ccc(C)cc2C)S(=O)(=O)N2CCCC2)cc1 [CBK265998]	83.3145
N#CC1CCCc2c1[nH]c1ccc(Cl)cc21 (stereo not shown) [CBK101438]	90.1988
Cc1ccc(C2=CCN(S(=O)(=O)c3ccc(F)cc3)CC2)o1 [CBK283571]	75.8405
Cc1nn(CCC#N)c(C)c1[C@@H]1C=C[C@@H](NC(=O)NC(C)C)C1 [CBK289172]	123.131
Cc1cccc(C(=O)Nc2ccc(C(=O)NNC(=O)C(C)(C)C)cc2)c1 [CBK269073]	114.935
CC1CN(Cc2nc3c(c(=O)n(C)c(=O)n3C)n2CCN2CCOCC2)CC(C)O1 (stereo not shown) [CBK269340]	101.552
NC(=O)c1cccnc1N1CCN(CCCN(c2ccc(F)cc2)c2ccc(F)cc2)CC1 [CBK025341C]	106.988
COC(=O)CN1C(=O)CC2(C1=O)C(=O)N(Cc1ccccc1)c1ccc(F)cc12 (stereo not shown) [CBK075143]	110.415
C#C[C@H]1C[N@@]2CC[C@H]1C[C@@H]2CNC(=O)Nc1cccc(C#N)c1 [CBK288754]	142.158
Cc1c(C(=O)O)c2cc(O)ccc2n1-c1ccccc1 [CBK115329]	85.5281
Nc1ccc(-c2ccc(OC(F)(F)F)cc2)c2ccccc12 [CBK084327]	99.6511
O=c1cc2oc3cc(O)c(O)cc3c(-c3cccc(OCc4ccc([N+](=O)[O-])cc4)c3)c-2cc1O [CBK265388]	88.3327
CCCn1c(SCC(=O)N2CCc3ccccc32)nc(O)cc1=O [CBK305843]	102.112
COc1ccc(-c2cc(C3CCCCCN3)no2)cc1 (stereo not shown) [CBK285399]	125.202
Cc1noc(C)c1S(=O)(=O)Nc1csc(C(F)(F)F)c1-c1ccccc1 [CBK001237]	96.4072
O=[N+]([O-])c1cccc(C(Nc2ccccn2)n2cnc3ccccc32)c1 (stereo not shown) [CBK261145]	99.1338
Cc1cc(OC(C)C(=O)Nc2ccccc2C(=O)N2CCCC2)ccc1Cl (stereo not shown) [CBK269710]	175.205
Cc1ccc(NS(=O)(=O)c2cc(C(=O)Nc3ccc(S(=O)(=O)N4CCCC4)cc3)ccc2C)cc1 [CBK268784]	62.7076

A different layout for some results above.

| Compound | % of control remaining [%] |
| --- | --- |
| Cc1nn(CCC#N)c(C)c1[C@@H]1C=C[C@@H](NC(=O)NC(C)C)C1 [CBK289172] | 123.131 |
| Cc1cccc(C(=O)Nc2ccc(C(=O)NNC(=O)C(C)(C)C)cc2)c1 [CBK269073] | 114.935 |
